PubChem BioAssay AID1508597 | Cure First | 2020

- Screen: 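Survival screen with siRNA in ovarian cancer cells derived from patients, with or without rucaparib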 (primary screen)
- Cell system: human ovarian carcinoma lines grown from tumours: OCI-P5x (papillary serous) and OCI-C5x (clear cell)
- Reagents: siRNA pool against human genes, 1.25 pmol siRNA per well
- Timing: 72 h or 96 h, depending on the cell culture
- Challenge: rucaparib 20 µM (about IC30) or vehicle, present until read-out
- Rucaparib or vehicle: Vehicle
- Cell line: OCI-P5x (serous)
- Measurement: 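ATP luminescence measured at 72 or 96 h according to the culture, then normalised and expressed as percent viability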
- Scale: viability, normalised: higher = more viable cells remaining
- Hit rule: 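a well counts as a hit if its normalised viability is under 80 percent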
- Calls: active = viability under 80%; inactive = viability 80% or more
This is a random part of the about 2,100 reagents, under one of the conditions tested. 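Calls flag viability under 80% in either arm, not effects specific to rucaparib; the reference for percent is not stated.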 A reagent listed more than once was tested more than once; the source does not tell the runs apart. No sequences are given here. Not stated in the record: the 100% reference.

ASXL3 (ASXL transcriptional regulator 3), technical replicate 1: viability, normalised (%) = 60.1; activity call = active
ASXL3 (ASXL transcriptional regulator 3), technical replicate 2: viability, normalised (%) = 71.3; activity call = active
ASXL3 (ASXL transcriptional regulator 3), technical replicate 3: viability, normalised (%) = 69.1; activity call = active
ATRX (ATRX chromatin remodeler), technical replicate 1: viability, normalised (%) = 76; activity call = active
ATRX (ATRX chromatin remodeler), technical replicate 1: viability, normalised (%) = 61.4; activity call = active
ATRX (ATRX chromatin remodeler), technical replicate 2: viability, normalised (%) = 79.6; activity call = active
ATRX (ATRX chromatin remodeler), technical replicate 2: viability, normalised (%) = 69; activity call = active
ATRX (ATRX chromatin remodeler), technical replicate 3: viability, normalised (%) = 73.2; activity call = active
ATRX (ATRX chromatin remodeler), technical replicate 3: viability, normalised (%) = 75.3; activity call = active
SERPINE2 (serpin family E member 2), technical replicate 1: viability, normalised (%) = 71.5; activity call = active
SERPINE2 (serpin family E member 2), technical replicate 2: viability, normalised (%) = 72.1; activity call = active
SERPINE2 (serpin family E member 2), technical replicate 3: viability, normalised (%) = 87.7; activity call = inactive
PAK6 (p21 (RAC1) activated kinase 6), technical replicate 1: viability, normalised (%) = 63.4; activity call = active
PAK6 (p21 (RAC1) activated kinase 6), technical replicate 1: viability, normalised (%) = 87.7; activity call = inactive
PAK6 (p21 (RAC1) activated kinase 6), technical replicate 2: viability, normalised (%) = 70.8; activity call = active
PAK6 (p21 (RAC1) activated kinase 6), technical replicate 2: viability, normalised (%) = 83.7; activity call = inactive
PAK6 (p21 (RAC1) activated kinase 6), technical replicate 3: viability, normalised (%) = 86.4; activity call = inactive
PAK6 (p21 (RAC1) activated kinase 6), technical replicate 3: viability, normalised (%) = 93.3; activity call = inactive
KMT2B (lysine methyltransferase 2B), technical replicate 1: viability, normalised (%) = 63.5; activity call = active
KMT2B (lysine methyltransferase 2B), technical replicate 2: viability, normalised (%) = 60.3; activity call = active
KMT2B (lysine methyltransferase 2B), technical replicate 3: viability, normalised (%) = 62.2; activity call = active
RPS6KB2 (ribosomal protein S6 kinase B2), technical replicate 1: viability, normalised (%) = 80.2; activity call = inactive
RPS6KB2 (ribosomal protein S6 kinase B2), technical replicate 2: viability, normalised (%) = 86.5; activity call = inactive
RPS6KB2 (ribosomal protein S6 kinase B2), technical replicate 3: viability, normalised (%) = 82.4; activity call = inactive

Next part; the last 4 above are carried over.
KMT2B (lysine methyltransferase 2B), technical replicate 3: viability, normalised (%) = 62.2; activity call = active
RPS6KB2 (ribosomal protein S6 kinase B2), technical replicate 1: viability, normalised (%) = 80.2; activity call = inactive
RPS6KB2 (ribosomal protein S6 kinase B2), technical replicate 2: viability, normalised (%) = 86.5; activity call = inactive
RPS6KB2 (ribosomal protein S6 kinase B2), technical replicate 3: viability, normalised (%) = 82.4; activity call = inactive
IRAK3 (interleukin 1 receptor associated kinase 3), technical replicate 1: viability, normalised (%) = 80; activity call = active
IRAK3 (interleukin 1 receptor associated kinase 3), technical replicate 2: viability, normalised (%) = 82.7; activity call = inactive
IRAK3 (interleukin 1 receptor associated kinase 3), technical replicate 3: viability, normalised (%) = 65.6; activity call = active
PFKFB4 (6-phosphofructo-2-kinase/fructose-2,6-biphosphatase 4), technical replicate 1: viability, normalised (%) = 84; activity call = inactive
PFKFB4 (6-phosphofructo-2-kinase/fructose-2,6-biphosphatase 4), technical replicate 2: viability, normalised (%) = 82.3; activity call = inactive
PFKFB4 (6-phosphofructo-2-kinase/fructose-2,6-biphosphatase 4), technical replicate 3: viability, normalised (%) = 96.3; activity call = inactive
MELK (maternal embryonic leucine zipper kinase), technical replicate 1: viability, normalised (%) = 63.8; activity call = active
MELK (maternal embryonic leucine zipper kinase), technical replicate 2: viability, normalised (%) = 73.4; activity call = active
MELK (maternal embryonic leucine zipper kinase), technical replicate 3: viability, normalised (%) = 69.5; activity call = active
DYRK3 (dual specificity tyrosine phosphorylation regulated kinase 3), technical replicate 1: viability, normalised (%) = 89.5; activity call = inactive
DYRK3 (dual specificity tyrosine phosphorylation regulated kinase 3), technical replicate 2: viability, normalised (%) = 87.5; activity call = inactive
DYRK3 (dual specificity tyrosine phosphorylation regulated kinase 3), technical replicate 3: viability, normalised (%) = 97.2; activity call = inactive
PDIK1L (PDLIM1 interacting kinase 1 like), technical replicate 1: viability, normalised (%) = 82.2; activity call = inactive
PDIK1L (PDLIM1 interacting kinase 1 like), technical replicate 2: viability, normalised (%) = 71.6; activity call = active
PDIK1L (PDLIM1 interacting kinase 1 like), technical replicate 3: viability, normalised (%) = 77.5; activity call = active
PIK3CD, technical replicate 1: viability, normalised (%) = 82.8; activity call = inactive
PIK3CD, technical replicate 2: viability, normalised (%) = 71.4; activity call = active
PIK3CD, technical replicate 3: viability, normalised (%) = 71.2; activity call = active
